From patent US20230104124A1, “N-PALMITOYLETHANOLAMIDE AND DOCOSAHEXAENOIC ACID FOR USE IN THE TREATMENT OF AUTISM SPECTRUM DISORDER AND OTHER DEPRESSIVE SYNDROMES” (EPITECH GROUP S.P.A., priority 2021, published 2023)
At least one compound was matched to its structure with a doubt left.

Experiments:
Assay type in all cases: in vivo
BTBR mice [1] = experiment: Marble Burying test in BTBR mice; conditions: per os daily for 10 days, PEA-um 1 mg/kg, DHA 5 mg/kg (30 mg/kg DHA 17% titer), 8 animals per group
From the text: (§1) Healthy male C57BL/6J (C57) mice and 90-day BTBR T+tf/J (BTBR) mice (The Jackson Laboratory, Bar Harbor, ME, USA) fed ad libitum and housed in controlled sleep/wake cycle cages were used in the in vivo trial. Before the start of the experimentation, the animals were subjected to an acclimatization period of 1 week considering all the experimental procedures and protocols, compliant with the principles of care and welfare of laboratory animals approved by the Italian Ministry of Health (Italian Legislative Decree 2014/26) and European directives (EU Directive 2010/63). […]
(§2) All the values reported in the results are expressed as mean ± standard error of the mean (SEM) of N observations (N = number of animals). The statistical differences in the ALLO dosage and behavioral score were analyzed with one-way ANOVA, followed by Sidak’s multiple comparisons. […]

BTBR mice [2] = experiment: Self Grooming test in BTBR mice; conditions: monitored for 20 minutes, per os daily for 10 days, PEA-um 1 mg/kg, DHA 5 mg/kg (30 mg/kg DHA 17% titer)
From the text: as §1, §2
In the Self Grooming test, the mice were placed in an empty plexiglass cage (30x40 cm) and allowed to freely explore the arena. After 10 minutes of acclimatization, self grooming activity was monitored for 20 minutes. […]

BTBR mice [3] = experiment: Sociability, three-chamber test in BTBR mice; conditions: per os daily for 10 days, PEA-um 1 mg/kg, DHA 5 mg/kg (30 mg/kg DHA 17% titer)
From the text: as §1, §2
(§3) In the last 10-minute phase, the preference of the mouse in staying in the empty chamber or in the presence of the mouse was evaluated (Crawley JN, Designing mouse behavioral tasks relevant to autistic-like behaviors, Ment. Retard Dev. Disabil. Res. Rev. 2004, 10: 248-258). The time spent in each chamber was detected by a camera coupled to video tracking software.

C57 mice = experiment: Sociability, three-chamber test in healthy C57 mice; conditions: per os daily for 10 days, PEA-um 1 mg/kg, DHA 5 mg/kg (30 mg/kg DHA 17% titer)
From the text: as §1, §2, §3

plasma ALLO levels = experiment: Plasma ALLO neurosteroid levels in BTBR mice; conditions: plasma 10 days after starting daily per os treatment, PEA-um 1 mg/kg, DHA 5 mg/kg (30 mg/kg DHA 17% titer)
From the text: as §1, §2

## CC/C=C\C/C=C\C/C=C\C/C=C\C/C=C\C/C=C\CCC(=O)O [DHA, Docosahexaenoic acid]
BTBR mice [1]
  Number of marbles buried in 15 min (obsessive behavior): obsessively bury the marbles
BTBR mice [2]
  Time spent self-grooming (repetitive behavior): did not demonstrate any reduction in the time (s) spent self-grooming
BTBR mice [3]
  Sociability (time spent in empty chamber or chamber occupied by a mouse): did not demonstrate social improvements
C57 mice
  Sociability (time spent in empty chamber or chamber occupied by a mouse): enhanced sociability to another mouse
Plasma ALLO levels
  Plasma ALLO levels: significant reduction in plasma ALLO levels
